Some entries share one result that the patent states for a list of compounds. At least one compound was matched to its structure with a doubt left.
Biological target: human Z A1AT (Homo sapiens, UniProt P01009, E366K)
Test: A1AT cell secretion assay using HEK-Z cells (ELISA)
Assay type: cell-based
Set-up: expressed in transfected cells; host or cells: HEK-Z cells (transfected HEK-EBNA)
Conditions: 10, 33, 100 and 333 nM, 48 h
Protocol: HEK-Z cells, a human embryonic kidney cell line stably transfected with the human Z A1AT gene, were plated into 96 well plates (3.0×10^5 cells/ml with 200 μl of media/well) overnight at 37° C. in a humidified atmosphere containing 5% CO2. Following incubation cells were washed with 200 μl serum-free media three times and media was replaced with treatments in quadruplicate using serum-free media containing vehicle, 10 μM suberanilohydroxamic acid (SAHA) or the compounds of Examples 1-18 (at concentrations of 10, 33, 100 and 333 nM) for 48 h in a 37° C. incubator in a final volume of 200 μl. At the end of the incubation step the supernatants were removed from the wells, centrifuged at 1000×g at 4° C. for 10 min and were assayed for human A1AT levels by ELISA (Human Serpin A1/α1-antitrypsin duo set ELISA, R& D Systems, DY1268) per manufacturer's instructions.
Briefly, a 96 well plate was coated with human A1AT capture antibody overnight at room temperature (1:180 dilution from stock, 100 μl final volume/well). The capture antibody was then removed and wells washed three times with 300 μl wash buffer (0.05% Tween 20 in PBS) and then 200 μl reagent diluent ([…]) was incubated in each well for 1 h at room temperature. Diluted samples, standards (125, 250, 500, 1000, 2000, 4000 and 8000 pg/ml A1AT) or blanks were then added to each well in duplicate and the plates were covered with a plate sealer and left at room temperature for 2 h. At the end of the sample incubation step, samples were removed and all wells washed as previously and 100 μl detection antibody (1:180 dilution from stock) was added to each well and incubated for a further 2 h at room temperature. Following incubation with detection antibody, supernatant was removed and wells were washed as previously and 100 μl streptavidin-HRP solution (1:200 dilution from stock) was added to each well for 20 min in the dark. After which, 50 μl stop solution (2M H2SO4) was added and optical density (OD) of each well was read at 450 nm with 570 nm blank subtracted from each well using a microplate reader. A 4 parameter logistic curve was constructed using GraphPad Prism 7 and A1AT concentrations were determined in each sample by interpolation from a standard curve and multiplying by the appropriate dilution factor.
The amount of human A1AT secreted from transfected HEK-EBNA cells into the media was measured by ELISA. SAHA at 10 μM was used a positive control for all in vitro A1AT secretion experiments.

Amino acid sequences for entries named in this document (tags omitted). Residues count along the entry.
UniProt P01009, 25-418 E366K: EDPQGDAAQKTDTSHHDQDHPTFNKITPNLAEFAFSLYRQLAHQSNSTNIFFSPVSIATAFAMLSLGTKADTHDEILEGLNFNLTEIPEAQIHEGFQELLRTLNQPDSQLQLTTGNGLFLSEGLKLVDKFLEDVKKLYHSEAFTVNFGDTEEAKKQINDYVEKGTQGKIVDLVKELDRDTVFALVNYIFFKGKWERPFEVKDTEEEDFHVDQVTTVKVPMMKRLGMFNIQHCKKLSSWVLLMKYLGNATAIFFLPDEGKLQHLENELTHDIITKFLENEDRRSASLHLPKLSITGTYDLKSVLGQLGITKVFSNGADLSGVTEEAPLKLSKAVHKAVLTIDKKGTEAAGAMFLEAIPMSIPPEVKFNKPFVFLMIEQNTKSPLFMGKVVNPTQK

| SMILES | secretion of human Z A1AT from HEK-Z cells |
| --- | --- |
| O=C(O)C1CCN(S(=O)(=O)c2cccc3cccnc23)CC1 [Example 1, 1-(Quinolin-8-ylsulfonyl)piperidine-4-carboxylic acid] | increase the secretion of human Z A1AT from HEK-Z cells in a dose dependent manner |
| O=C(O)C1CCN(S(=O)(=O)c2ccccc2Cl)CC1 [Example 2, 1-((2-Chlorophenyl)sulfonyl)piperidine-4-carboxylic acid] | increase the secretion of human Z A1AT from HEK-Z cells in a dose dependent manner |
| O=C(O)C1CCN(S(=O)(=O)c2cccc(Cl)c2)CC1 [Example 3, 1-((3-Chlorophenyl)sulfonyl)piperidine-4-carboxylic acid] | increase the secretion of human Z A1AT from HEK-Z cells in a dose dependent manner |
| O=C(O)C1CCN(S(=O)(=O)c2cccc(Cl)c2Cl)CC1 [Example 4, 1-((2,3-Dichlorophenyl)sulfonyl)piperidine-4-carboxylic acid] | increase the secretion of human Z A1AT from HEK-Z cells in a dose dependent manner |
| O=C(O)[C@H]1CCCN(S(=O)(=O)c2cccc(F)c2)C1 [Example 5, (S)-1-((3-Fluorophenyl)sulfonyl)piperidine-3-carboxylic acid] | increase the secretion of human Z A1AT from HEK-Z cells in a dose dependent manner |
| O=C(O)[C@H]1CCCN(S(=O)(=O)c2cccc(Cl)c2)C1 [Example 6, (S)-1-((3-Chlorophenyl)sulfonyl)piperidine-3-carboxylic acid] | increase the secretion of human Z A1AT from HEK-Z cells in a dose dependent manner |
| O=C(O)[C@@H]1CCCN(S(=O)(=O)c2cccc(F)c2)C1 [Example 7, (R)-1-((3-Fluorophenyl)sulfonyl)piperidine-3-carboxylic acid] | increase the secretion of human Z A1AT from HEK-Z cells in a dose dependent manner |
| O=C(O)[C@@H]1CCCN(S(=O)(=O)c2cccc(Cl)c2)C1 [Example 8, (R)-1-((3-Chlorophenyl)sulfonyl)piperidine-3-carboxylic acid] | increase the secretion of human Z A1AT from HEK-Z cells in a dose dependent manner |
| O=C(O)C1CCN(S(=O)(=O)c2ccc(Cl)cc2)CC1 [Example 9, 1-((4-Chlorophenyl)sulfonyl)piperidine-4-carboxylic acid] | increase the secretion of human Z A1AT from HEK-Z cells in a dose dependent manner |
| O=C(O)C1CCN(S(=O)(=O)c2ccccc2C(F)(F)F)CC1 [Example 10, 1-((2-(Trifluoromethyl)phenyl)sulfonyl)piperidine-4-carboxylic acid] | increase the secretion of human Z A1AT from HEK-Z cells in a dose dependent manner |
| O=C(O)C1CCN(S(=O)(=O)c2cccc(C(F)(F)F)c2)CC1 [Example 11, 1-((3-(Trifluoromethyl)phenyl)sulfonyl)piperidine-4-carboxylic acid] | increase the secretion of human Z A1AT from HEK-Z cells in a dose dependent manner |
| O=C(O)C1CCN(S(=O)(=O)c2ccc(C(F)(F)F)cc2)CC1 [Example 12, 1-((4-(Trifluoromethyl)phenyl)sulfonyl)piperidine-4-carboxylic add] | increase the secretion of human Z A1AT from HEK-Z cells in a dose dependent manner |
| O=C(O)C1CCN(S(=O)(=O)c2cc(C(F)(F)F)ccc2C(F)(F)F)CC1 [Example 13, 1-((2,5-Bis(trifluoromethyl)phenyl)sulfonyl)piperidine-4-carboxylic acid] | increase the secretion of human Z A1AT from HEK-Z cells in a dose dependent manner |
| O=C(O)C1CCN(S(=O)(=O)c2ccccc2OC(F)(F)F)CC1 [Example 14, 1-((2-(Trifluoromethoxy)phenyl)sulfonyl)piperidine-4-carboxylic acid] | increase the secretion of human Z A1AT from HEK-Z cells in a dose dependent manner |
| O=C(O)[C@H]1CCN(S(=O)(=O)c2ccccc2C(F)(F)F)C1 [Example 15, (S)-1-((2-(Trinfluoromethyl)phenyl)sulfonyl)pyrrolidine-3-carboxylic acid] | increase the secretion of human Z A1AT from HEK-Z cells in a dose dependent manner |
| O=C(O)[C@@H]1CCN(S(=O)(=O)c2ccccc2C(F)(F)F)C1 [Example 16, (R)-1-((2-(Trifluoromethyl)phenyl)sulfonyl)pyrrolidine-3-carboxylic acid] | increase the secretion of human Z A1AT from HEK-Z cells in a dose dependent manner |
| O=C(O)[C@H]1CCCN(S(=O)(=O)c2ccccc2C(F)(F)F)C1 [Example 17, (S)-1-((2-(Trinfluoromethyl)phenyl)sulfonyl)piperidine-3-carboxylic acid] | increase the secretion of human Z A1AT from HEK-Z cells in a dose dependent manner |
| O=C(O)[C@@H]1CCCN(S(=O)(=O)c2ccccc2C(F)(F)F)C1 [Example 18, (R)-1-((2-(Trifluoromethyl)phenyl)sulfonyl)piperidine-3-carboxylic acid] | increase the secretion of human Z A1AT from HEK-Z cells in a dose dependent manner |
